Source: US20220275097A1
No constants are given. Whether binding was seen depends on the method and setting. Some binding calls cover weakened binding; strength is not graded here.

By UniProt entry, the sequences of proteins in these tests, tags left out. Residues count along the entry.
UniProt P48357, residues 22-839: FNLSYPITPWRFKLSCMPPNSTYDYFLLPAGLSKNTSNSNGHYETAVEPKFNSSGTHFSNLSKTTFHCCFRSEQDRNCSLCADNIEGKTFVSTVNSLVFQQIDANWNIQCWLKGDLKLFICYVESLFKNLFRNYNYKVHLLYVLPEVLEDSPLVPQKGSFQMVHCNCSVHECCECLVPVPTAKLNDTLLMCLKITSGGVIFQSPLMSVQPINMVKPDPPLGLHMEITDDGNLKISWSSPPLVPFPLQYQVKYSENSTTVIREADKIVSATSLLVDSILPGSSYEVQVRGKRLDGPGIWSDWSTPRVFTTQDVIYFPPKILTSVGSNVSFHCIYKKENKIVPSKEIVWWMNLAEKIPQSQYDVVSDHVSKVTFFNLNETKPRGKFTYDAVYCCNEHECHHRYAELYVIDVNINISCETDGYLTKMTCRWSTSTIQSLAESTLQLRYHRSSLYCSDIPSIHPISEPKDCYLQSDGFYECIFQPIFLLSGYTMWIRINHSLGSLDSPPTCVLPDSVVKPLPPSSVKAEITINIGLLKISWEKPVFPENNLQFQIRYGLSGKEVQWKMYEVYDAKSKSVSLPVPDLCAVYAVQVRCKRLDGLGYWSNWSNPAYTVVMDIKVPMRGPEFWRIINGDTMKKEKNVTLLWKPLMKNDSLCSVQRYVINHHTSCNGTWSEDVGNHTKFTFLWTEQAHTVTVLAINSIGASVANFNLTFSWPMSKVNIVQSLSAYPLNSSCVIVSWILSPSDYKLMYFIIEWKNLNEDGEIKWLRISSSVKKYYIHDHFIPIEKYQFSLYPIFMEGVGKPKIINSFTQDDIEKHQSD
UniProt P41159, residues 22-167: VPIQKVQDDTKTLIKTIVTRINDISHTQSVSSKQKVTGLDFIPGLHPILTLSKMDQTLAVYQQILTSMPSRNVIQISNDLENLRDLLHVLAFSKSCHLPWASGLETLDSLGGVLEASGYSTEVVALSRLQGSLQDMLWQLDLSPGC

Assays:
[1] = molecular target: extracellular domain of the human leptin receptor (human) (UniProt P48357); test: SPR, Biacore T200
[2] = molecular target: extracellular domain of the human leptin receptor (human) (UniProt P48357); test: SPR (Biacore T200), His-tagged leptin receptor ECD amine-coupled to a CM5 chip, leptin as analyte
[3] = molecular target: extracellular domain of the human leptin receptor (human) (UniProt P48357); test: competition ELISA: plate coated with human leptin receptor ECD, leptin titrated together with fixed S1scAb06 (50, 25 or 12.5 nM), bound antibody detected with a secondary antibody, OD405
[4] = molecular target: extracellular domain of the human leptin receptor (human) (UniProt P48357); test: competition ELISA: plate coated with human leptin receptor ECD, leptin titrated together with fixed S2H6 (3.12, 1.56 or 0.78 nM), bound antibody detected with a secondary antibody, OD405

Measured: binding

leptin (from UniProt P41159 22-167) (ligand)
binds: all assays above
